Results from patent US20100209513A1, “PHARMACEUTICAL COMPOSITION CONTAINING MICRONIZED PARTICLES OF NAPHTHOQUINONE-BASED COMPOUND” (priority 2007, published 2010).
For at least one compound, name, drawing or mass did not settle the structure.

Assay: Dissolution test, paddle method (Example 15)
Assay type: physicochemical
Settings: different time points, FIGS. 3 to 6; pH 6.8, 1.5% Tween 80, 37° C.
Protocol: Dissolution test was commonly carried out under the following condition.
The dissolution test was carried out according to the paddle method of Korean Phramacopeia. The paddle rate was 75 rpm, the temperature of an effluent was 37° C., and a test solution was a mixture solution of pH 6.8, 1.5% Tween 80. First, the test solution was filtered through a […] Membrane filter and centrifuged. Supernatant fluid was taken, and the content of drug was analyzed by HPLC, and the amount of released drug was measured at different time points. The drugs used for the dissolution test are Compounds 1, 5, 44 and 51 provided in Table 1, and the extract set forth in the Korean Patent No. 10-818586 which contains Compound 58 over 60 wt % (‘Compound 58 Extract’). Microparticulation was carried out using Jet mill or ball mill without any surfactant. The particle size of compounds was determined by HELOS measurement.

C[C@H]1COC2=C1C(=O)C(=O)c1c2ccc2c1CCCC2(C)C [Compound 58, cryptotanshinone]
Change of dissolution rate of micronized particles compared to before micronization: increased significantly
